Data taken from PMC4422595.
These are yes or no findings as the source states them, for the method shown. In cells and extracts the contact can be indirect. Some results given as binding are weak or reduced against the parent protein; the word gives no strength.

The chains behind the UniProt entries cited, without tags or fusion partners.
UniProt Q9UKV5: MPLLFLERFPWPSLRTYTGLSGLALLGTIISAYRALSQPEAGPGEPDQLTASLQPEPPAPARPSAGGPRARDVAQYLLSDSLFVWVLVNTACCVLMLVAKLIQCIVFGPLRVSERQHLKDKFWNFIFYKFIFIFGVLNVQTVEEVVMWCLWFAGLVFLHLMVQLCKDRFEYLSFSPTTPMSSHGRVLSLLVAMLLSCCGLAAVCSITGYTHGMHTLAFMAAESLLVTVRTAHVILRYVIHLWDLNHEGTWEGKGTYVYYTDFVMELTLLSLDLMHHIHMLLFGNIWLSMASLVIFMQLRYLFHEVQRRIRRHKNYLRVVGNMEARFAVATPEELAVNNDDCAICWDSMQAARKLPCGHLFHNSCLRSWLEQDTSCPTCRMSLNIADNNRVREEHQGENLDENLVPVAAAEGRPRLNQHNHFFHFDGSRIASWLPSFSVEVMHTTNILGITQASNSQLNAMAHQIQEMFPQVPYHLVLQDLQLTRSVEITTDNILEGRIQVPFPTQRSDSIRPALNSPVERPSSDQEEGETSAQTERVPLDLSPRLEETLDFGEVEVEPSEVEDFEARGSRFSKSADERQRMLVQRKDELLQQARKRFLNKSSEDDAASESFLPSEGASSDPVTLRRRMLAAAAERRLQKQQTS

Molecular target: Glucose-6-phosphate isomerase, Flag-tagged (pcDNA3.1-GPI-Flag) (human) (UniProt P06744)
Assay: co-IP; FLS transfected with pcDNA3.1-GPI-Flag; lysates collected 48 hours later; FLAG Immunoprecipitation Kit (Sigma-Aldrich); bound fragments analysed by Western blot

In the case of “glycoprotein 78 (autocrine motility factor receptor) (from UniProt Q9UKV5 1-643)”, the binding is reported as “binds”.
